From PubChem BioAssay AID540316 (Broad Institute, 2011)
This list was built around the results that the source calls inconclusive (neither active nor inactive); the mix of calls is not that of the screen. The source made the active and inactive calls.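 Rule for the calls: active = compounds lowering viability whose fitted half-maximal concentration is at most tenfold the top tested dose; inconclusive = flat curve with viability loss of 30 to 70%, or bad fit; inactive = the rest.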

Test: cytotoxicity toward BJeH engineered cells – cell-based, plate reader, dry powder, set 4, counter-screen for Ras selective lethality project, dose response (AID 540316)
Settings: BJeH fibroblasts viability, Alamar Blue fluorescence, 48 h; at 48 µM (top of the series)

SMILES | activity change, negative = fewer viable cells
COc1ccc(C(c2ccc(OC)cc2)N2CCN(C(=O)c3noc(C)c3[N+](=O)[O-])CC2)cc1 | inconclusive: -24.2%
Cc1onc(CC(=O)N2CCN(C(c3ccc(F)cc3)c3ccc(F)cc3)CC2)c1[N+](=O)[O-] | inactive: -13.5%
